# Results: the supplement of paper PMC12067093, “Discovery and optimisation of a covalent ligand for TRIM25 and its application to targeted protein ubiquitination” (Chemical Science, 2025)
# By UniProt entry, the sequences of proteins in these tests, tags left out. Where a name states a change or a piece, a line headed by the entry shows the natural chain unless it says otherwise.
# UniProt Q6ZNJ1: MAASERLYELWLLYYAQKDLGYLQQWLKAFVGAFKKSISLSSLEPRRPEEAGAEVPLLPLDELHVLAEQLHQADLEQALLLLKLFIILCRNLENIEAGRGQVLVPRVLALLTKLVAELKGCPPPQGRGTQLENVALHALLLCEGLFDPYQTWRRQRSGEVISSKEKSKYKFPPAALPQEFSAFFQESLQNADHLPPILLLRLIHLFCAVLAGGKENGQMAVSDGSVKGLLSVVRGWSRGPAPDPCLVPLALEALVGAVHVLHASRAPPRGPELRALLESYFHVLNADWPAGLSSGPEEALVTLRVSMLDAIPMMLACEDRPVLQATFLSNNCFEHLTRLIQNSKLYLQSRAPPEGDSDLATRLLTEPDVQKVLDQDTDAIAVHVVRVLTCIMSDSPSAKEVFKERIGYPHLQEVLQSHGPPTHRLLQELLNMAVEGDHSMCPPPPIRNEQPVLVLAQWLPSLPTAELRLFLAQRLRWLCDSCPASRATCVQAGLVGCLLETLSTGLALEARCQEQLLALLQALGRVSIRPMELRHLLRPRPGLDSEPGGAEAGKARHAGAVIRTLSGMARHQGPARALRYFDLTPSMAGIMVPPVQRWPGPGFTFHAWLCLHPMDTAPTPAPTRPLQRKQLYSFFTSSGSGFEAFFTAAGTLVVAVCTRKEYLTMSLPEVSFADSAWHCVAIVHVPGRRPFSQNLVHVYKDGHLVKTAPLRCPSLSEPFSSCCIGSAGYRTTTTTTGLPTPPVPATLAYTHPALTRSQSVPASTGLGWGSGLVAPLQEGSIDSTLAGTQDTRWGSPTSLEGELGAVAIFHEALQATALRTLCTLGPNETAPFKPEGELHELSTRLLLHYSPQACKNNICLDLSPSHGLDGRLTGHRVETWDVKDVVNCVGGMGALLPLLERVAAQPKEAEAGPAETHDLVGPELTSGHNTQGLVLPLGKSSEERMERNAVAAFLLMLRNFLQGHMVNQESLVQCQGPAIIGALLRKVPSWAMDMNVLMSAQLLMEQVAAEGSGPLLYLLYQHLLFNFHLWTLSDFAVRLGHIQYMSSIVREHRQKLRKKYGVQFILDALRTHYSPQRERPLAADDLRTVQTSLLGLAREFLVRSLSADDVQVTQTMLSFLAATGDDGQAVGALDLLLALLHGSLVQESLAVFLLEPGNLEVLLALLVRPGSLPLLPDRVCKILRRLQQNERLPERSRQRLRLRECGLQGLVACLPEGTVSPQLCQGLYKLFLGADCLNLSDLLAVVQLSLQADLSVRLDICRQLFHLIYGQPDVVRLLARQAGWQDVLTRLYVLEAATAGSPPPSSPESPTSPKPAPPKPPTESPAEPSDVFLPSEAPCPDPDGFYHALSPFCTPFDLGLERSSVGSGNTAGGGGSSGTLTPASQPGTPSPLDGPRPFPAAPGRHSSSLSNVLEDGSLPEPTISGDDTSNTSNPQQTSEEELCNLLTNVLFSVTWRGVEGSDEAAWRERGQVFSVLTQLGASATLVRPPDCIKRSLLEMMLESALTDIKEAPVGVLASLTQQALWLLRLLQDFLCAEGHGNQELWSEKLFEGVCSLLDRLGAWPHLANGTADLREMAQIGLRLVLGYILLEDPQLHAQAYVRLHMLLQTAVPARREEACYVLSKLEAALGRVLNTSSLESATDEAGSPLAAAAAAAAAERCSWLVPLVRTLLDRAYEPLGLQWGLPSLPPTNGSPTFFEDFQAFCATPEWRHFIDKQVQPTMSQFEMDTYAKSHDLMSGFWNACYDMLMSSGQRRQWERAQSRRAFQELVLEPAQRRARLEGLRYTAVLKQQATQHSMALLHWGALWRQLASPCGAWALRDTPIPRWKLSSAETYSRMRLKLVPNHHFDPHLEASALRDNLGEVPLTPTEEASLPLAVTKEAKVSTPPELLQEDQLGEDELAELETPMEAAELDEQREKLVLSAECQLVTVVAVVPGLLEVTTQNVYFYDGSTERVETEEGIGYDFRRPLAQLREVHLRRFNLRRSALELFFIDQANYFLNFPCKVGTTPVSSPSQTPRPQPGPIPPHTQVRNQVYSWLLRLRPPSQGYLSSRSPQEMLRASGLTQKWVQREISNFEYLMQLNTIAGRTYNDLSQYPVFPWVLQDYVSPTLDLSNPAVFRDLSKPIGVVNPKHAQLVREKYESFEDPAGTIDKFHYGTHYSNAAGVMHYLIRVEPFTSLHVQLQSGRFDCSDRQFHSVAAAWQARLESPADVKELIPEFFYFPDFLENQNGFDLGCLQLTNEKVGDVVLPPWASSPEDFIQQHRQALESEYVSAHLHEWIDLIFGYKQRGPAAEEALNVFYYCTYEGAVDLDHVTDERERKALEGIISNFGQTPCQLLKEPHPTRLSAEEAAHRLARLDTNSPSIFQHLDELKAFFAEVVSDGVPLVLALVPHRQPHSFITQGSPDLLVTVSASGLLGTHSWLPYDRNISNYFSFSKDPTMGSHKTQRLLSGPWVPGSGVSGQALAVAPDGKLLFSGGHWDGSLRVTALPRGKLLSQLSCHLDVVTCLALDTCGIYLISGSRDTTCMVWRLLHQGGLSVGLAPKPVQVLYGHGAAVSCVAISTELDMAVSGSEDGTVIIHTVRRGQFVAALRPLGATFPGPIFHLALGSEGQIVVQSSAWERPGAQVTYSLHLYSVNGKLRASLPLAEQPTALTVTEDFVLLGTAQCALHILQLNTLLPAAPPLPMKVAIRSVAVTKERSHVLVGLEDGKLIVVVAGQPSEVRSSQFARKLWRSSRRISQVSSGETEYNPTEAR
# UniProt B0I1T2: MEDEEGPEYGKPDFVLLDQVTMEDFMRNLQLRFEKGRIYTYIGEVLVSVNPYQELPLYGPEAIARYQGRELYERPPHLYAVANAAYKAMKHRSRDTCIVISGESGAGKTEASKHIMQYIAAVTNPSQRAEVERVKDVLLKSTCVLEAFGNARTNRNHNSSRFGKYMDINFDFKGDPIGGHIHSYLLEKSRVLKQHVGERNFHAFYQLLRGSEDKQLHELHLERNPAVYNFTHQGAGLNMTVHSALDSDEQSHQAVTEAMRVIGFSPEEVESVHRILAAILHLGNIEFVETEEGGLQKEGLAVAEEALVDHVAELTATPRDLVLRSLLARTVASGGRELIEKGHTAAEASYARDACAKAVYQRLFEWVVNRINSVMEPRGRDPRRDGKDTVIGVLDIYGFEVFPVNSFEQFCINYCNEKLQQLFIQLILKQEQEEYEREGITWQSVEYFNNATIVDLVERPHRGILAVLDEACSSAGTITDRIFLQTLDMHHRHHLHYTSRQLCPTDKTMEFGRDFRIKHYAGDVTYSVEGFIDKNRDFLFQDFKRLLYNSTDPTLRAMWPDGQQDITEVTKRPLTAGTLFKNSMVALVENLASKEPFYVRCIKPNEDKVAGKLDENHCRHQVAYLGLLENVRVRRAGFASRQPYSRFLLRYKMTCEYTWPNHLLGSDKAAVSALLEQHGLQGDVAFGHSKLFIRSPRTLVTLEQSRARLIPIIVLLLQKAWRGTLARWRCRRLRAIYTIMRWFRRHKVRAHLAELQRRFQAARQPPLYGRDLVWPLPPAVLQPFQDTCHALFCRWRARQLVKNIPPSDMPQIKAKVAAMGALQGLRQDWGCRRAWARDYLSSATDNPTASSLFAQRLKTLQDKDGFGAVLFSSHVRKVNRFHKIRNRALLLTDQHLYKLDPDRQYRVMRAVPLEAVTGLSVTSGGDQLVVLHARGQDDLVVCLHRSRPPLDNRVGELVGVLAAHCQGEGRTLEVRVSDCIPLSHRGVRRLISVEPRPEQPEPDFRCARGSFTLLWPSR
# UniProt Q13564: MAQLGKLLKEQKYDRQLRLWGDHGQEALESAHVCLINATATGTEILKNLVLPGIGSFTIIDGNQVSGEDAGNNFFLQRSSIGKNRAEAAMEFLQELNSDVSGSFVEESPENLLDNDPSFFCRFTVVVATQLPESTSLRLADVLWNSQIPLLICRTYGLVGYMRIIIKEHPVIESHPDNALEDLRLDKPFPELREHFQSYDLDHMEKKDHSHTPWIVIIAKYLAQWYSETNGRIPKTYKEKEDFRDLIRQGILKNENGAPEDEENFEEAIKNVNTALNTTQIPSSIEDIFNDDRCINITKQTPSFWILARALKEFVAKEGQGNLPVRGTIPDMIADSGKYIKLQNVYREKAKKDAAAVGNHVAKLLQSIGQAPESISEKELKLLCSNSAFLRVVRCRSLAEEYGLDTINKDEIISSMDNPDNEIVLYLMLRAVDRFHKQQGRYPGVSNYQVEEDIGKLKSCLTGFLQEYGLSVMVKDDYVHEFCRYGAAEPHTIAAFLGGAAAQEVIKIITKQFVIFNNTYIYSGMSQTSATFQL
# UniProt Q15003, whole entry, looked up: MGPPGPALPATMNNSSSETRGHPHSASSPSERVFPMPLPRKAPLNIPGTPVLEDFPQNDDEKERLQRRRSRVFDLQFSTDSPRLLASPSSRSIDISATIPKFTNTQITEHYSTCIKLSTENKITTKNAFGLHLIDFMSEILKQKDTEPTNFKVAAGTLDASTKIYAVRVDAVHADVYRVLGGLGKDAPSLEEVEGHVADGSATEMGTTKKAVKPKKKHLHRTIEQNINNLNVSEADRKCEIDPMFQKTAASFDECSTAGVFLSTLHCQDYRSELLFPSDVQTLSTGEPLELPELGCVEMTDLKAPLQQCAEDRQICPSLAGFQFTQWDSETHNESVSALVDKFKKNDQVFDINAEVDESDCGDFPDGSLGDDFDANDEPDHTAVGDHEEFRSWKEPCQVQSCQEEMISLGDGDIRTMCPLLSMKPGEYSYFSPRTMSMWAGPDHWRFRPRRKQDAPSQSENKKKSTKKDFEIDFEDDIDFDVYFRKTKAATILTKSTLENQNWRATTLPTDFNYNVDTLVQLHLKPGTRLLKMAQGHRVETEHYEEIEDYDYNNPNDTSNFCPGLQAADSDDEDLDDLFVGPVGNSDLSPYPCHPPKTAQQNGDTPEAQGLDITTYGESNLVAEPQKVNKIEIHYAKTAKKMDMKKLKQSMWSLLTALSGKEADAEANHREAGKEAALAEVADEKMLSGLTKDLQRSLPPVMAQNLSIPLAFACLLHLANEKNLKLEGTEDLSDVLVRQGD
# UniProt Q14CX7, whole entry, looked up: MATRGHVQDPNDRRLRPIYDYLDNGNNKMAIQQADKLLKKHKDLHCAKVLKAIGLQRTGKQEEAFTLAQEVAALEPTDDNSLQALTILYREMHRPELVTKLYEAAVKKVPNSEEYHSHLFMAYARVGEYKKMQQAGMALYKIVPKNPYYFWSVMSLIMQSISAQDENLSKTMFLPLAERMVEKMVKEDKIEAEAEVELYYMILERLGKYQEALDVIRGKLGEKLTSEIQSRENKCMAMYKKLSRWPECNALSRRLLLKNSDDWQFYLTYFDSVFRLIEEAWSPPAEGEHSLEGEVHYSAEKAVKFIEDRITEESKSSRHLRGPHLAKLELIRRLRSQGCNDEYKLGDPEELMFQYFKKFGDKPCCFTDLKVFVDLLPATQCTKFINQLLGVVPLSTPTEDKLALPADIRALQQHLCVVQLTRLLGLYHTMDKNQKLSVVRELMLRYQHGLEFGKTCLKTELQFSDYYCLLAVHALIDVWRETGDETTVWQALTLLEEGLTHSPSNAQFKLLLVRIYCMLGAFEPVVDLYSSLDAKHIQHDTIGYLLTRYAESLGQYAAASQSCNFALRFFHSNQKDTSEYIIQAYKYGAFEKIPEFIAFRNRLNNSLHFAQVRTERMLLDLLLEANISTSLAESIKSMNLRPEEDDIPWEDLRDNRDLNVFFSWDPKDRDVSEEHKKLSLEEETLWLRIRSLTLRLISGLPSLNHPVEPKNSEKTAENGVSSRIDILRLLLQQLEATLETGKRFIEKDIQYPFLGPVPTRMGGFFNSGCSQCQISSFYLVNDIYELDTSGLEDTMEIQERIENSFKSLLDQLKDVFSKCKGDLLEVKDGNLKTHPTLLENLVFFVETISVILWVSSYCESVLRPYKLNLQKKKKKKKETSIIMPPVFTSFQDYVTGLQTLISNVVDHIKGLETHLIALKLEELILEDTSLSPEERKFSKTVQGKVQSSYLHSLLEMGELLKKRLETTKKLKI
# UniProt O43776: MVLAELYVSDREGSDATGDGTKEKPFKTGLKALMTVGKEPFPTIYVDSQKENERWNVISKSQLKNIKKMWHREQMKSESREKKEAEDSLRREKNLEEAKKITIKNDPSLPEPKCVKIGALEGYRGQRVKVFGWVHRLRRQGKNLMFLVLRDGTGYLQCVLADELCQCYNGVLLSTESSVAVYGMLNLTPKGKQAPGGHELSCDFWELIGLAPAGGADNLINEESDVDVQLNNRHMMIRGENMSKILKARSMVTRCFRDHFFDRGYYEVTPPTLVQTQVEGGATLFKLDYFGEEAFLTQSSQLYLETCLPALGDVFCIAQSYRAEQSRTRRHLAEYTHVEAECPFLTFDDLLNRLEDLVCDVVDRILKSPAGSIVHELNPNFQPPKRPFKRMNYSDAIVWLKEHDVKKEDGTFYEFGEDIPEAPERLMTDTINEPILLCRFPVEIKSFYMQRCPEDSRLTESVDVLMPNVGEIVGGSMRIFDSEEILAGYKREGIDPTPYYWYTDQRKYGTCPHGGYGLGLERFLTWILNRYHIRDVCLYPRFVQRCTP
# Some of the results follow.
# Compound: CC1Cc2ccccc2N1C(=O)C1CCCN(C1)C(=O)CCl (mixture of isomers) [TRIM25 ligand 11 (diastereomer mixture)]
# Assay: probe-labelled cysteine peptide fold change vs DMSO (competition) (log2 fold change); higher = less target engagement (more negative = stronger competition)
# Settings: 50 µM; THP-1; incubation time: 4 h
# 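Further: competitive chemoproteomic profiling in live THP-1 cells with an iodoacetamide desthiobiotin (IA-DTB) probe, comparing probe-labelled peptide intensities in compound-treated cells against DMSO-treated controls.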
row,Target,probe-labelled cysteine peptide fold change
1,NBEAL2_Q6ZNJ1_1661_CSWLVPLVR (UniProt Q6ZNJ1),0.226
2,NCAPH2_Q6IBW4_309_EGAPEPASCVK (UniProt Q6IBW4),-0.231
3,NAPA_P54920_84_HDAATCFVDAGNAFKK (UniProt P54920),-0.017
4,MYO1G_B0I1T2_965_VGELVGVLAAHCQGEGR (UniProt B0I1T2),-0.0379
5,NBEAL1_Q6ZS30_271_CLTEVVHILLSSNSDQR (UniProt Q6ZS30),0.0625
6,NAE1_Q13564_460_SCLTGFLQEYGLSVMVK (UniProt Q13564),0.015
7,NCBP2_P52298_84_TACGFCFVEYYSR (UniProt P52298),0.0446
8,NASP_P49321_568_LGEVSVESENYVQAVEEFQSCLNLQEQYLEAHDR (UniProt P49321),0.217
9,MYO1F_O00160_807_GQVCEVLKK (UniProt O00160),-0.136
10,NCBP1_Q09161_477_ILDIVPPTFSALCPANPTCIYK (UniProt Q09161),0.126
11,NBEAL2_Q6ZNJ1_1619_REEACYVLSK (UniProt Q6ZNJ1),0.00413
12,NCAPD2_Q15021_596_ESTGNMVTGQTVCK (UniProt Q15021),-0.291
13,MYO1G_B0I1T2_97_DTCIVISGESGAGK (UniProt B0I1T2),0.138
14,NBAS_A2RRP1_1777_LQYYFTLLENCGCADLGNCAIKPETHIR (UniProt A2RRP1),-0.138
15,NANS_Q9NR45_46_ECGADCAK (UniProt Q9NR45),0.0836
16,NAA35_Q5VZE5_420_DCIDSFVTHCVRPFCSLIQIHGHNR (UniProt Q5VZE5),-0.139
17,NCAPH_Q15003_267_TAASFDECSTAGVFLSTLHCQDYR (UniProt Q15003),-0.337
18,NCAPH_Q15003_418_TMCPLLSMKPGEYSYFSPR (UniProt Q15003),-0.448
19,NCAPD3_P42695_588_EDLWILQDQCR (UniProt P42695),0.0819
20,NCAPH_Q15003_418_TMCPLLSMK (UniProt Q15003),-0.375

row,Target,probe-labelled cysteine peptide fold change
1,NCAPD3_P42695_143_CIQTLK (UniProt P42695),0.12
2,NAA25_Q14CX7_235_CMAMYK (UniProt Q14CX7),-0.119
3,NADSYN1_Q6IA69_338_YHSPEEEISLGPACWLWDFLRR (UniProt Q6IA69),-0.0752
4,NACC1_Q96RE7_464_ESEMNAIAADMCTNAR (UniProt Q96RE7),0.383
5,NAE1_Q13564_34_LWGDHGQEALESAHVCLINATATGTEILK (UniProt Q13564),0.0385
6,NBN_O60934_323_NYCDPQGHPSTGLK (UniProt O60934),-0.127
7,NARS_O43776_452_CPEDSR (UniProt O43776),0.016
8,N4BP2_Q86UW6_1096_STFVEESELTSADESENLNILCK (UniProt Q86UW6),-0.112
9,NARS_O43776_438_LMTDTINEPILLCR (UniProt O43776),-0.0731
10,MYSM1_Q5VVJ2_564_SSFDPFQLIPCNFFSEEK (UniProt Q5VVJ2),0.0254
11,NAA16_Q6N069_221_QICDKLLVEEIK (UniProt Q6N069),-0.025
12,NCAPD3_P42695_824_ASAETPAEEQELLTQVCGDVLSTCEHR (UniProt P42695),-0.0777
13,NAA25_Q14CX7_339_SQGCNDEYK (UniProt Q14CX7),-0.0602
14,NCAPG2_Q86XI2_401_STGILGVCK (UniProt Q86XI2),-0.123
15,NCAM2_O15394_380_YDCEAASR (UniProt O15394),0.393
16,MYO1G_B0I1T2_618_LDENHCR (UniProt B0I1T2),0.247
17,NAE1_Q13564_153_LADVLWNSQIPLLICR (UniProt Q13564),0.00569
18,MYO18A_Q92614_783_SSQHSLCSMMIVDTPGFQNPEQGGSAR (UniProt Q92614),-0.287
19,MYO9B_Q13459_1279_SKPCGSPR (UniProt Q13459),-0.314
